Source: article PMC3389674, “Comparison of Soluble Guanylate Cyclase Stimulators and Activators in Models of Cardiovascular Disease Associated with Oxidative Stress” (Frontiers in Pharmacology, 2012)

System: SHR-SP
Experiment: chronic treatment of SHR-SP on high salt/fat diet: survival, blood pressure, renal and cardiac function
Assay type: in vivo, rat
From the text: The SHR-SP is an established model of genetic hypertension. […] As such, a cohort of HSFD SHR-SP was established as a model of cardiovascular disease associated with chronic oxidative stress in this study.
A subgroup of animals (n = 45) was anesthetized with isoflurane and surgically implanted with radiotelemetry transmitters (PhysioTel PA-C40, Data Sciences International, St. Paul, MN, USA). The transmitter catheter was threaded through the femoral artery into the abdominal aorta. At 11–12 weeks of age, baseline blood pressure and heart rate were measured for 5 days (10 s recordings every 5 min) in normal caging, then rats were acclimated to metabolic caging for a minimum of 48 h before a basal 24 h urine sample and blood were collected. […] The ND group was maintained on normal chow and water throughout the study. […] Rats displaying signs of morbidity which included piloerection, lack of grooming, persistent body weight loss, lethargy, or seizure/convulsions, were promptly euthanized.
Treatments were administered in respective diets starting 1 week after the initiation of HSFD. Urine collections were repeated on weeks 2, 4, 6, and 8 and blood was sampled in the morning after each 24 h collection period for assessment of renal function. Plasma creatinine and urine sodium, microalbumin (MALB), and creatinine were ascertained using an AU640 Chemistry Analyzer (Olympus America, Inc., Center Valley, PA, USA). Plasma compound concentrations were determined as described above.
During week 7, cardiac function and morphometry were evaluated via transthoracic echocardiography. Rats were anesthetized with isoflurane (2–4% induction and 1–3% maintenance). Two-dimensional gray scale images of the left ventricle were obtained in the short axis plane at mid-ventricle level and in the parasternal long axis plane using a GE Vivid 7 system (GE Medical Systems, Milwaukee, WI, USA) and stored as digital cineloops. Pulse wave Doppler recordings from the LV outflow were obtained to determine heart rate. All images were analyzed by a single observer using a GE EchoPac (GE Medical Systems, Milwaukee, WI, USA). LV volumes were calculated as V=5/6(LVA×LVL) where LVA is area of LV chamber from the short axis view and LVL is the LV length from the long axis view at end diastole and end systole. […] Analysis was performed on three to five cardiac cycles.

| SMILES | BW (body weight at week 7) (HSFD + 0.3 mg/kg/day in chow) [g] | BW (body weight at week 7) (HSFD + 3.0 mg/kg/day in chow) [g] | BW (body weight at week 7) (HSFD + 0.1 mg/kg/day in chow) [g] | BW (body weight at week 7) (HSFD + 1.0 mg/kg/day in chow) [g] |
| --- | --- | --- | --- | --- |
| COC(=O)Nc1c(N)nc(-c2nn(Cc3ccccc3F)c3ncccc23)nc1N [BAY 60-4552] | 328 ± 6 | 345 ± 14 |  |  |
| Cc1cc(-c2ccc(OC(F)(F)F)cc2)ccc1COc1ccccc1-c1cccc(-n2ncc(C(=O)O)c2C(F)(F)F)n1 [GSK2181236A, 1-(6-{2-[({3-methyl-4′-[(trifluoromethyl)oxy]-4-biphenylyl}methyl)oxy]phenyl}-2-pyridinyl)-5-(trifluoromethyl)-1H-pyrazole-4-carboxylic acid] |  |  | 331 ± 16 | 338 ± 5 |
